The values below come from ChEMBL document CHEMBL5260848, “Recent advancements in the development of bioactive pyrazoline derivatives” (Eur J Med Chem, 2020).

The chains behind the UniProt entries cited, without tags or fusion partners. Where a name states a change or a piece, a line headed by the entry shows the natural chain unless it says otherwise.
UniProt P22303: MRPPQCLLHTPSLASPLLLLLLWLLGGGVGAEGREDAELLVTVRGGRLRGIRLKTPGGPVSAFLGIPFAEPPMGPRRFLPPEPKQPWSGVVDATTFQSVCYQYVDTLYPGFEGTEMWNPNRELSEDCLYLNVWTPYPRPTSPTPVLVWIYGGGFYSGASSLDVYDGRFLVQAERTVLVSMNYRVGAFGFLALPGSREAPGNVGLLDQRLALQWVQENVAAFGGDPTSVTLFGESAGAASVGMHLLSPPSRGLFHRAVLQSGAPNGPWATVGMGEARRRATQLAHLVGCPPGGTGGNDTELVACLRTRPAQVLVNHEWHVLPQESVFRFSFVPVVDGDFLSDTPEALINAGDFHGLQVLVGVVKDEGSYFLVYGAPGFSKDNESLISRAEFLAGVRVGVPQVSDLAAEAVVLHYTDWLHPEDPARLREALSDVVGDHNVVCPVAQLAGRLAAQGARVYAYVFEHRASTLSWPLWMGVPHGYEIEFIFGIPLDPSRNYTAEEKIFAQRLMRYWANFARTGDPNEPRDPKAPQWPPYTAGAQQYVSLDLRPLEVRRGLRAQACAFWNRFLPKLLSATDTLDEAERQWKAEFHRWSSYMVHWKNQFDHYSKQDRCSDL

The target in the assay is Acetylcholinesterase (Homo sapiens, UniProt P22303).

As usually defined, the IC50 is the concentration at which inhibition is half-maximal. Lower therefore signals greater potency. What is called Ki is the dissociation constant of the complex between target and ligand, obtained from inhibition or displacement. High values mean a looser hold on the target, low ones a stronger hold on the target. Consider `COc1cccc(C2CC(c3cc(F)cc(F)c3)=NN2c2ccc(S(N)(=O)=O)cc2)c1OC` (centres undefined), for which half-maximal inhibition (IC50) was put at 6.36 nM and the inhibition constant (Ki) is 3.28 nM.
With `COc1ccc(OC)c(C2CC(c3cc(F)ccc3F)=NN2c2ccc(S(N)(=O)=O)cc2)c1` (centres undefined), the IC50 was 6.36 nM and the inhibition constant Ki was 3.28 nM.
